Results are given in words; binding and its absence hold for the method and conditions named. In cells and extracts the contact can be indirect. Some results given as binding are weak or reduced against the parent protein; the word gives no strength.

The target of test [1] is mouse PPARγ2, wild type, overexpressed in HEK293T cells (mouse) (UniProt P37238). The experiment in a line: co-IP; HEK293T cells co-transfected with PPARγ2 and the partner gene (pcDNA3.1(-)), lysed after 24 h; IP with 0.5 μg anti-Flag overnight at 4 °C, Protein A + G agarose; washed 7 times in 150 mM NaCl, 1 mM EDTA, 20 mM Tris, 1% Triton X-100, pH 8.0; cells treated with PMA (100 nM) and Ro (2 μM), RSG (1 μM) or CDDO (100 nM).

Test [2] addresses endogenous PPARγ T166A in SVF-differentiated primary adipocytes of homozygous TA knock-in mice (mouse (endogenous in SVF-differentiated primary adipocytes)) (UniProt P37238). The experiment in a line: co-IP; mature SVF-differentiated primary adipocytes of homozygous WT, TA and TD mice, lysed; IP of endogenous PPARγ with 2 μg mouse anti-PPARγ (Santa Cruz, sc-7273).
Test [3] concerns the target endogenous PPARγ, wild type, in SVF-differentiated primary adipocytes of homozygous WT mice (mouse (endogenous in SVF-differentiated primary adipocytes)) (UniProt P37238). Described as above.

Regarding “mouse PKCα, exogenous, in HEK293T cells (from UniProt P20444 1-672) (enzyme)”, in test [1], the binding result was “binds”.

B1: endogenous PGC1α in mouse SVF-differentiated primary adipocytes (protein, UniProt O70343 1-797)
chain: MAWDMCSQDSVWSDIECAALVGEDQPLCPDLPELDLSELDVNDLDTDSFLGGLKWCSDQSEIISNQYNNEPANIFEKIDEENEANLLAVLTETLDSLPVDEDGLPSFDALTDGAVTTDNEASPSSMPDGTPPPQEAEEPSLLKKLLLAPANTQLSYNECSGLSTQNHAANHTHRIRTNPAIVKTENSWSNKAKSICQQQKPQRRPCSELLKYLTTNDDPPHTKPTENRNSSRDKCASKKKSHTQPQSQHAQAKPTTLSLPLTPESPNDPKGSPFENKTIERTLSVELSGTAGLTPPTTPPHKANQDNPFKASPKLKPSCKTVVPPPTKRARYSECSGTQGSHSTKKGPEQSELYAQLSKSSGLSRGHEERKTKRPSLRLFGDHDYCQSLNSKTDILINISQELQDSRQLDFKDASCDWQGHICSSTDSGQCYLRETLEASKQVSPCSTRKQLQDQEIRAELNKHFGHPCQAVFDDKSDKTSELRDGDFSNEQFSKLPVFINSGLAMDGLFDDSEDESDKLSYPWDGTQPYSLFDVSPSCSSFNSPCRDSVSPPKSLFSQRPQRMRSRSRSFSRHRSCSRSPYSRSRSRSPGSRSSSRSCYYYESSHYRHRTHRNSPLYVRSRSRSPYSRRPRYDSYEAYEHERLKRDEYRKEHEKRESERAKQRERQKQKAIEERRVIYVGKIRPDTTRTELRDRFEVFGEIEECTVNLRDDGDSYGFITYRYTCDAFAALENGYTLRRSNETDFELYFCGRKQFFKSNYADLDTNSDDFDPASTKSKYDSLDFDSLLKEAQRSLRR
For the molecule B1, the binding entry in test [2] and in test [3] was “binds” each time.

The values are drawn from PMC9984430.
